According to doi:10.1101/524959:
No constants are given. Whether binding was seen depends on the method and setting. For part of these data: Binding seen in cells or lysates may run through a third protein. Some entries that bind do so weakly or less than the wild type. For part of these data: Tags and fused reporters may be left off the sequences shown.

Protein sequences, listed by entry. Tags and fused reporters are not part of them.
UniProt Q9HFE8: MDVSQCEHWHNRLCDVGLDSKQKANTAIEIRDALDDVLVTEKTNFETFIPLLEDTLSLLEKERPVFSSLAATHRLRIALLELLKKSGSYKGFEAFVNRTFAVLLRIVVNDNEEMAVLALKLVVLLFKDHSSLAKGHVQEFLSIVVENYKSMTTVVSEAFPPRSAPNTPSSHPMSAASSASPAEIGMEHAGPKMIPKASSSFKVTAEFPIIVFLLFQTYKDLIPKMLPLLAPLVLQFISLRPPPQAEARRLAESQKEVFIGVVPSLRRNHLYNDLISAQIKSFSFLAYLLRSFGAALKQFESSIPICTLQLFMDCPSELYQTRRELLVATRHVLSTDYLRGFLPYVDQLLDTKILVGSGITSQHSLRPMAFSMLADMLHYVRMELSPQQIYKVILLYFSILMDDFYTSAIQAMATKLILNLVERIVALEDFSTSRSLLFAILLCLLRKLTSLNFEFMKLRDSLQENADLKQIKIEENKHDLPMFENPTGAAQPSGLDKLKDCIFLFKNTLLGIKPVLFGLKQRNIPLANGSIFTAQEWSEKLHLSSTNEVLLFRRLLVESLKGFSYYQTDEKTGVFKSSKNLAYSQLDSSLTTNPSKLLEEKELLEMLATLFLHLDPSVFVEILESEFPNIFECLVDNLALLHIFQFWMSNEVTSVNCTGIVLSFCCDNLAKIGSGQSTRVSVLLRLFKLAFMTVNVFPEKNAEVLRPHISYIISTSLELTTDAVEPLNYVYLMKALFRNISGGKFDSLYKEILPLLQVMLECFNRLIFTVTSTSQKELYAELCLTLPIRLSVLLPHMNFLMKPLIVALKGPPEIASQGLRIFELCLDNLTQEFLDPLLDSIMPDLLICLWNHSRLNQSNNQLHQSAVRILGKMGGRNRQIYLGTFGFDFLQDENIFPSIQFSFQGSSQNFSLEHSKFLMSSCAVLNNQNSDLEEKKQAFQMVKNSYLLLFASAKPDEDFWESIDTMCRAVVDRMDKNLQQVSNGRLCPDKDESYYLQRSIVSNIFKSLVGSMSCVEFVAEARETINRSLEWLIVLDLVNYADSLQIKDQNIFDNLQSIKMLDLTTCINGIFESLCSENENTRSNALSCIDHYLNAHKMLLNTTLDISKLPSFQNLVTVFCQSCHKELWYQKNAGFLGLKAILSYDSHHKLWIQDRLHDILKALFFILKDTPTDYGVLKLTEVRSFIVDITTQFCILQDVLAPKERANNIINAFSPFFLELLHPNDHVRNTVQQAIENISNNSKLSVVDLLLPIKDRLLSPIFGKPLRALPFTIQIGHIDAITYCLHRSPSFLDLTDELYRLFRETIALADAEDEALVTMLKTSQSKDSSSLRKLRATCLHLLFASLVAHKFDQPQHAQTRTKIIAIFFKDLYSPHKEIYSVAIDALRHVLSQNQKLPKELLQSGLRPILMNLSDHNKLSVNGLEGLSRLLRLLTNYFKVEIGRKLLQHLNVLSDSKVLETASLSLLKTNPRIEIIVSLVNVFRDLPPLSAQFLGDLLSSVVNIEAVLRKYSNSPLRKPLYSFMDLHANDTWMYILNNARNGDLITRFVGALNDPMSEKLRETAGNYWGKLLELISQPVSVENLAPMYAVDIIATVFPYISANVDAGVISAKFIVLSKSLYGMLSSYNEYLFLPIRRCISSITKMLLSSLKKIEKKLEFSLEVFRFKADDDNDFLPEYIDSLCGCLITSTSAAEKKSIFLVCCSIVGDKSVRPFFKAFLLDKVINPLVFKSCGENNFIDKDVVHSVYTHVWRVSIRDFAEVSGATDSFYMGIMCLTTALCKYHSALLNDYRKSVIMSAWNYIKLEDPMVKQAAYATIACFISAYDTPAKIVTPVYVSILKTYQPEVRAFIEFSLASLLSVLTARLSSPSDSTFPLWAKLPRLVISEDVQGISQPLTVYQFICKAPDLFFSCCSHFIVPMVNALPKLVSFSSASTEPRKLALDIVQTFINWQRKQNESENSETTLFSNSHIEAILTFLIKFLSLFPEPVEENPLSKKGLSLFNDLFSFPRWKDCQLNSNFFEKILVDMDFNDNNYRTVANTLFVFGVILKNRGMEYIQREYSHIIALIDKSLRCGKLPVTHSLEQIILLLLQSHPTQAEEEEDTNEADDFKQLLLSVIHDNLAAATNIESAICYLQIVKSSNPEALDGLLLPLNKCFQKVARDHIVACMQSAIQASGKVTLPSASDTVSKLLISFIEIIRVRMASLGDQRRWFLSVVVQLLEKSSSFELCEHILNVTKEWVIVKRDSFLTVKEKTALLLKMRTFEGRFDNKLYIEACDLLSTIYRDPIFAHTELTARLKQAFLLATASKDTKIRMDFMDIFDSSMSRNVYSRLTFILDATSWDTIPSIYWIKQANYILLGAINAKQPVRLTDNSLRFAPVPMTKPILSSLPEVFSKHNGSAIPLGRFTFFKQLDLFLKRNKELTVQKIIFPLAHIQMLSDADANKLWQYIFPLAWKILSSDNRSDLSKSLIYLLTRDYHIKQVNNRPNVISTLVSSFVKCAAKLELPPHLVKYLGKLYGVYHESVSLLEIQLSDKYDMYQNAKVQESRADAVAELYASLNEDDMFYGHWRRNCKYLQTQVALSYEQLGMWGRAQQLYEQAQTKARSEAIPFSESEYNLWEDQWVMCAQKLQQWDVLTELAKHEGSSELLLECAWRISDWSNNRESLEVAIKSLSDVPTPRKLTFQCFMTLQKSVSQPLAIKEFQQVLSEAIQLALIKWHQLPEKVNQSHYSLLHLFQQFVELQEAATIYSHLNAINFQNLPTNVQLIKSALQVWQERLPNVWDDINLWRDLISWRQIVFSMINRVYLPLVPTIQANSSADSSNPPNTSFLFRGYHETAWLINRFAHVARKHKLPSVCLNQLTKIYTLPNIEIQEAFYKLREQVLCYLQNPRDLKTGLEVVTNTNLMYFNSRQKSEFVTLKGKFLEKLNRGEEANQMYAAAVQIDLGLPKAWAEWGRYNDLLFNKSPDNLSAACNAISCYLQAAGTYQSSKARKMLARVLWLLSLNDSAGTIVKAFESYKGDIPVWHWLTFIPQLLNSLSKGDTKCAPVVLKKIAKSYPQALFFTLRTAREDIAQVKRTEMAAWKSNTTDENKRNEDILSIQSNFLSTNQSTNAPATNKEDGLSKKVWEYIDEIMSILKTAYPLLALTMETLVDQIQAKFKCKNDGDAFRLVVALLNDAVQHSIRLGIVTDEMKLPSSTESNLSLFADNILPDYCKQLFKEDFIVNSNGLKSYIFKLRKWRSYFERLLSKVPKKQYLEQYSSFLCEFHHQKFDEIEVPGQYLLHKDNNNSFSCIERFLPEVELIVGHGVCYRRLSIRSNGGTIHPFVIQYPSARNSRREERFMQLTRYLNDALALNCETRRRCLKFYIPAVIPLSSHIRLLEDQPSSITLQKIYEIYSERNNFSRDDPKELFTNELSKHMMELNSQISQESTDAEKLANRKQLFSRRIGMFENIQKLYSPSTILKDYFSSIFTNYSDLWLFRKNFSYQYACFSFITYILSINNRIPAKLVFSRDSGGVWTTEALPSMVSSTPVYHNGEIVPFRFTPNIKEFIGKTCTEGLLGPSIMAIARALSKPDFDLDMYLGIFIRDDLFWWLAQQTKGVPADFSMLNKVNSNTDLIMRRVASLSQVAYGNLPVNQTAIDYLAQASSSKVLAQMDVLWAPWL

Assays:
[1] = target: T1, GST fused to S. pombe (Sp) Spt20 HIT region (residues 282-324) (S. pombe) (UniProt O14174); assay: pull-down
T1 sequence: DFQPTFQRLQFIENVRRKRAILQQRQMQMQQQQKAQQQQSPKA

[2] = target: T2, GST fused to S. cerevisiae (Sc) Spt20 HIT region (residues 468-537) (S. cerevisiae) (UniProt P50875); assay: pull-down
T2 sequence: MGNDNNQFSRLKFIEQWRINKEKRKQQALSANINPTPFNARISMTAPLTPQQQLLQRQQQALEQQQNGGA

[3] = target: T3, S. cerevisiae Spt20 (S. cerevisiae) (UniProt P50875); assay: tandem affinity purification
T3 sequence: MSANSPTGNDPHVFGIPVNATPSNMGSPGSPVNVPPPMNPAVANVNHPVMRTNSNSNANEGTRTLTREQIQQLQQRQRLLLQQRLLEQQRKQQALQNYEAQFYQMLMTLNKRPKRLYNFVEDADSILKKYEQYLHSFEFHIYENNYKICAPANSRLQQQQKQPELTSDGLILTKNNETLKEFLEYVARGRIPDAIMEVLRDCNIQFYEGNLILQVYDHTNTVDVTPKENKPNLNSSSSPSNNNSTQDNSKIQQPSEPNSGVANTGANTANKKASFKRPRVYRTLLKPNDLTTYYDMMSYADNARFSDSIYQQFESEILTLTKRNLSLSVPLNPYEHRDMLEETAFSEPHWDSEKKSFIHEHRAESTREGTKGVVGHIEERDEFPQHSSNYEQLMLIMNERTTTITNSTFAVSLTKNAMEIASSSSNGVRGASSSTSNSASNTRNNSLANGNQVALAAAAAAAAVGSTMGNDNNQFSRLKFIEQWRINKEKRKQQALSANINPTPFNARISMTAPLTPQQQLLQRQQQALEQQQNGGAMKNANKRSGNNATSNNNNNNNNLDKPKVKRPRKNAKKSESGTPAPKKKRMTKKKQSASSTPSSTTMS

Row | binding [1] | binding [2] | binding [3] | Substance
1 | binds | binds |  | FLAG-Tra1 (from UniProt Q9HFE8 1-3661)
2 |  |  | binds | S. cerevisiae Tra1 (from UniProt P38811 1-3744)
